Some of these results come from one statement about several compounds together.
Legend:
Type in all cases: in vivo
[1] = test system: Diabrotica balteata; assay: Example B1: Diabrotica balteata (corn root worm), maize sprouts sprayed; details: application rate of 200 ppm; L2 larvae; 4 days after infestation
Description: Maize sprouts placed onto an agar layer in 24-well microtiter plates were treated with aqueous test solutions prepared from 10′000 ppm DMSO stock solutions by spraying. After drying, the plates were infested with L2 larvae (6 to 10 per well). The samples were assessed for mortality and growth inhibition in comparison to untreated samples 4 days after infestation. The following compounds gave an effect of at least 80% in at least one of the two categories (mortality or growth inhibition) at an application rate of 200 ppm: A01, A02, A03, A04, A05, A06, A07, A08, A09, A10, A11, A12, A13, A14, A15, A16, A17, A18, A19, A20, A21, A22, A23, A24, A25, A26, A27, A28, B01

[2] = test system: Euschistus heros; assay: Example B2: Euschistus heros (neotropical brown stink bug), soybean leaves sprayed; details: application rate of 200 ppm; N2 nymphs; 5 days after infestation
Description: Soybean leaves on agar in 24-well microtiter plates were sprayed with aqueous test solutions prepared from 10′000 ppm DMSO stock solutions. After drying the leaves were infested with N2 nymphs. The samples were assessed for mortality and growth inhibition in comparison to untreated samples 5 days after infestation. The following compounds gave an effect of at least 80% in at least one of the two categories (mortality or growth inhibition) at an application rate of 200 ppm: A01, A02, A03, A04, A05, A06, A07, A08, A09, A10, A11, A12, A13, A14, A15, A16, A17, A18, A19, A20, A21, A22, A23, A24, A25, A26, A27, A28, B01

[3] = test system: Myzus persicae; assay: Example B3: Myzus persicae (green peach aphid), intrinsic activity; details: test rate of 12 ppm; 5 days after infestation
Description: Test compounds prepared from 10′000 ppm DMSO stock solutions were applied by pipette into 24-well microtiter plates and mixed with sucrose solution. The plates were closed with a stretched Parafilm. A plastic stencil with 24 holes was placed onto the plate and infested pea seedlings were placed directly on the Parafilm. The infested plate was closed with a gel blotting paper and another plastic stencil and then turned upside down. The samples were assessed for mortality 5 days after infestation.

[4] = test system: Plutella xylostella; assay: Example B4: Plutella xylostella (diamond back moth), artificial diet; details: application rate of 200 ppm; L2 larvae; 5 days after infestation
Description: 24-well microtiter plates with artificial diet were treated with aqueous test solutions prepared from 10′000 ppm DMSO stock solutions by pipetting. After drying, the plates were infested with L2 larvae (10 to 15 per well). The samples were assessed for mortality and growth inhibition in comparison to untreated samples 5 days after infestation. The following compounds gave an effect of at least 80% in at least one of the two categories (mortality or growth inhibition) at an application rate of 200 ppm: A01, A02, A03, A04, A05, A06, A07, A08, A09, A10, A11, A12, A13, A14, A15, A16, A17, A18, A19, A20, A21, A22, A23, A24, A25, A26, A27, A28, B01

[5] = test system: Spodoptera littoralis; assay: Example B5: Spodoptera littoralis (Egyptian cotton leaf worm), feeding/contact activity; details: application rate of 200 ppm; L1 larvae; 3 days after infestation
Description: (§1) Cotton leaf discs were placed onto agar in 24-well microtiter plates and sprayed with aqueous test solutions prepared from 10′000 ppm DMSO stock solutions. After drying the leaf discs were infested with five L1 larvae. The samples were assessed for mortality 3 days after infestation.

[6] = test system: Tetranychus urticae; assay: Example B6: Tetranychus urticae (two-spotted spider mite), feeding/contact activity; details: application rate of 200 ppm; 8 days after infestation
Description: as §1, with “Bean” for “Cotton”, “on” for “were placed onto”, “were” for “and”, “a mite population of mixed ages.” for “five L1 larvae.”, “on mixed population (mobile stages) 8” for “3”

[7] = test system: Thrips tabaci; assay: Example B7: Thrips tabaci (onion thrips), feeding/contact activity; details: application rate of 200 ppm; mixed ages; 6 days after infestation
Description: as §1, with “Sunflower” for “Cotton”, “on” for “onto”, “a thrips population of mixed ages.” for “five L1 larvae.”, “6” for “3”

[8] = test system: Myzus persicae; assay: Example B8: Myzus persicae (green peach aphid), feeding/contact activity; details: application rate of 200 ppm; mixed ages; 6 days after infestation
Description: Sunflower leaf discs were placed onto agar in a 24-well microtiter plate and sprayed with aqueous test solutions prepared from 10′000 ppm DMSO stock solutions. After drying, the leaf discs were infested with an aphid population of mixed ages. The samples were assessed for mortality 6 days after infestation.

Cc1cc(C2=NOC(c3cc(Cl)c(F)c(Cl)c3)(C(F)(F)F)C2)ccc1C(=O)NC1CN(S(C)(=O)=O)C1 (stereo not drawn) [Compound A01]
at least 80%: effect in at least one of the two categories (mortality or growth inhibition) [1] | effect in at least one of the two categories (mortality or growth inhibition) [2] | mortality [3] | effect in at least one of the two categories (mortality or growth inhibition) [4] | mortality [5] | mortality on mixed population (mobile stages) [6] | mortality [7] | mortality [8]

Cc1cc(C2=NOC(c3cc(Cl)cc(Cl)c3)(C(F)(F)F)C2)ccc1C(=O)NC1CN(S(C)(=O)=O)C1 (stereo not drawn) [Compound A02]
at least 80%: effect in at least one of the two categories (mortality or growth inhibition) [1] | effect in at least one of the two categories (mortality or growth inhibition) [2] | mortality [3] | effect in at least one of the two categories (mortality or growth inhibition) [4] | mortality [5] | mortality on mixed population (mobile stages) [6] | mortality [7]

Cc1cc(C2=NOC(c3cc(Cl)c(F)c(Cl)c3)(C(F)(F)F)C2)ccc1C(=O)NC1CN(S(=O)(=O)CCl)C1 (stereo not drawn) [Compound A03]
at least 80%: effect in at least one of the two categories (mortality or growth inhibition) [1] | effect in at least one of the two categories (mortality or growth inhibition) [2] | mortality [3] | effect in at least one of the two categories (mortality or growth inhibition) [4] | mortality [5] | mortality on mixed population (mobile stages) [6] | mortality [7] | mortality [8]

Cc1cc(C2=NOC(c3cc(Cl)c(F)c(Cl)c3)(C(F)(F)F)C2)ccc1C(=O)NC1CN(S(=O)(=O)C(C)C)C1 (stereo not drawn) [Compound A04]
at least 80%: effect in at least one of the two categories (mortality or growth inhibition) [1] | effect in at least one of the two categories (mortality or growth inhibition) [2] | mortality [3] | effect in at least one of the two categories (mortality or growth inhibition) [4] | mortality [5] | mortality on mixed population (mobile stages) [6] | mortality [7] | mortality [8]

CCS(=O)(=O)N1CC(NC(=O)c2ccc(C3=NOC(c4cc(Cl)c(F)c(Cl)c4)(C(F)(F)F)C3)cc2C)C1 (stereo not drawn) [Compound A05]
at least 80%: effect in at least one of the two categories (mortality or growth inhibition) [1] | effect in at least one of the two categories (mortality or growth inhibition) [2] | mortality [3] | effect in at least one of the two categories (mortality or growth inhibition) [4] | mortality [5] | mortality on mixed population (mobile stages) [6] | mortality [7] | mortality [8]

Cc1cc(C2=NOC(c3cc(Cl)c(Cl)c(Cl)c3)(C(F)(F)F)C2)ccc1C(=O)NC1CN(S(=O)(=O)C(F)(F)F)C1 (stereo not drawn) [Compound A10]
at least 80%: effect in at least one of the two categories (mortality or growth inhibition) [1] | effect in at least one of the two categories (mortality or growth inhibition) [2] | mortality [3] | effect in at least one of the two categories (mortality or growth inhibition) [4] | mortality [5] | mortality on mixed population (mobile stages) [6] | mortality [7]

Cc1cc(C2=NOC(c3cc(Cl)cc(C(F)(F)F)c3)(C(F)(F)F)C2)ccc1C(=O)NC1CN(S(C)(=O)=O)C1 (stereo not drawn) [Compound A19]
at least 80%: effect in at least one of the two categories (mortality or growth inhibition) [1] | effect in at least one of the two categories (mortality or growth inhibition) [2] | mortality [3] | effect in at least one of the two categories (mortality or growth inhibition) [4] | mortality [5] | mortality on mixed population (mobile stages) [6] | mortality [7]

Cc1cc(C2=NOC(c3cc(Cl)c(F)c(Cl)c3)(C(F)(F)F)C2)ccc1C(=O)NC1CN(S(=O)(=O)CF)C1 (stereo not drawn) [Compound A20]
at least 80%: effect in at least one of the two categories (mortality or growth inhibition) [1] | effect in at least one of the two categories (mortality or growth inhibition) [2] | mortality [3] | effect in at least one of the two categories (mortality or growth inhibition) [4] | mortality [5] | mortality on mixed population (mobile stages) [6] | mortality [7]

Cc1cc(C2=NOC(c3cc(Cl)c(Cl)c(Cl)c3)(C(F)(F)F)C2)ccc1C(=O)NC1CN(S(=O)(=O)CCC(F)(F)F)C1 (stereo not drawn) [Compound A23]
at least 80%: effect in at least one of the two categories (mortality or growth inhibition) [1] | effect in at least one of the two categories (mortality or growth inhibition) [2] | effect in at least one of the two categories (mortality or growth inhibition) [4] | mortality [5] | mortality on mixed population (mobile stages) [6] | mortality [7]

Cc1cc(C2=NOC(c3cc(Cl)c(F)c(Cl)c3)(C(F)(F)F)C2)ccc1C(=O)NC1CN(S(=O)(=O)CCC(F)(F)F)C1 (stereo not drawn) [Compound A24]
at least 80%: effect in at least one of the two categories (mortality or growth inhibition) [1] | effect in at least one of the two categories (mortality or growth inhibition) [2] | effect in at least one of the two categories (mortality or growth inhibition) [4] | mortality [5] | mortality on mixed population (mobile stages) [6] | mortality [7]

Cc1cc(C2=NOC(c3cc(Cl)c(Cl)c(Cl)c3)(C(F)(F)F)C2)ccc1C(=O)NC1CN(S(=O)(=O)CC(F)(F)F)C1 (stereo not drawn) [Compound A25]
at least 80%: effect in at least one of the two categories (mortality or growth inhibition) [1] | effect in at least one of the two categories (mortality or growth inhibition) [2] | effect in at least one of the two categories (mortality or growth inhibition) [4] | mortality [5] | mortality on mixed population (mobile stages) [6] | mortality [7]

Cc1cc(C2=NOC(c3cc(Cl)c(Cl)c(Cl)c3)(C(F)(F)F)C2)ccc1C(=O)NC1CN(S(=O)(=O)CCl)C1 (stereo not drawn) [Compound A26]
at least 80%: effect in at least one of the two categories (mortality or growth inhibition) [1] | effect in at least one of the two categories (mortality or growth inhibition) [2] | effect in at least one of the two categories (mortality or growth inhibition) [4] | mortality [5] | mortality on mixed population (mobile stages) [6] | mortality [7] | mortality [8]

Cc1cc(C2=NOC(c3cc(Cl)c(Cl)c(Cl)c3)(C(F)(F)F)C2)ccc1C(=O)NC1CN(S(=O)(=O)CBr)C1 (stereo not drawn) [Compound A27]
at least 80%: effect in at least one of the two categories (mortality or growth inhibition) [1] | effect in at least one of the two categories (mortality or growth inhibition) [2] | effect in at least one of the two categories (mortality or growth inhibition) [4] | mortality [5] | mortality on mixed population (mobile stages) [6] | mortality [7] | mortality [8]

Cc1cc(C2=NOC(c3cc(Cl)c(F)c(Cl)c3)(C(F)(F)F)C2)ccc1C(=O)NC1CN(S(=O)(=O)CBr)C1 (stereo not drawn) [Compound A28]
at least 80%: effect in at least one of the two categories (mortality or growth inhibition) [1] | effect in at least one of the two categories (mortality or growth inhibition) [2] | effect in at least one of the two categories (mortality or growth inhibition) [4] | mortality [5] | mortality on mixed population (mobile stages) [6] | mortality [7] | mortality [8]

— patent publication US10875850B2, “Pesticidally active azetidine sulfones amide isoxazoline derivatives” (SYNGENTA PARTICIPATIONS AG, priority 2016, dated 2020)
